At least one compound was matched to its structure with a doubt left.
Biological target: N9 neuraminidase (Influenza A virus, UniProt P03472)
Format: binding, A/H1N9 (NWS/G70) avian virus

Amino acid sequences for entries named in this document (tags omitted). A change or cut given only in a name is not applied to a line headed by its entry.
UniProt P03472: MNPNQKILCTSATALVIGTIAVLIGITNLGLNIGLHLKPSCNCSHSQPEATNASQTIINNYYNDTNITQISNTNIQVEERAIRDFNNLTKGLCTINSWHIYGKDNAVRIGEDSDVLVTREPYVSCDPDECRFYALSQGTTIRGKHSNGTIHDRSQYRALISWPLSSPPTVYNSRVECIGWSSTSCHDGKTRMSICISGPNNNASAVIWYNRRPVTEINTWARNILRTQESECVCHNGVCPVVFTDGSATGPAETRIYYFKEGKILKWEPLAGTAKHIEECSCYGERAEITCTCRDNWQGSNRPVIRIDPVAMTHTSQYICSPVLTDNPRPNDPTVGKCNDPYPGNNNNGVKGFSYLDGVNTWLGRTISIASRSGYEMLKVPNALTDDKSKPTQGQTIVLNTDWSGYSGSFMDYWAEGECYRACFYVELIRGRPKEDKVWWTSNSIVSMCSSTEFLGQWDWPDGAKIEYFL

Structure (SMILES): CCC(CC)O[C@@H]1C=C(C(=O)O)C[C@H](N)[C@H]1NC(C)=O [oseltamivir carboxylate]
- t1/2 of dissociation from N9 neuraminidase: 1.25 h

— patent US20110015264A1 (priority 2006, published 2011)
